Experimental findings from publication PMC7819943, “Rice protein-binding microarrays: a tool to detect cis-acting elements near promoter regions in rice” are described below.

Sequences of proteins named here, by UniProt entry; tags and fusion partners are left off.
UniProt Q0JBA9, entry or part of it: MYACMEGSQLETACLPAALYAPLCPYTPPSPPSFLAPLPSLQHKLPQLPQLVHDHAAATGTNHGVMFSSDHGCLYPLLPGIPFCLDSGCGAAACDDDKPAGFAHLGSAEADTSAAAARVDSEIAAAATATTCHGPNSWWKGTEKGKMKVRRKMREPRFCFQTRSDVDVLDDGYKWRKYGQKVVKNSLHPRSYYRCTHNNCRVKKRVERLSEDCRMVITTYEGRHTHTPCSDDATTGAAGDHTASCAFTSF

The list shows a part of the results.

This experiment concerns the target OsWRKY34 (Oryza sativa, UniProt Q0JBA9 1-250). Description: protein-binding microarray (RPBM); PBS, 2% BSA, 51.3 ng/ul salmon testes DNA, 50 uM zinc acetate, 200 nM TF, 25 C, 1 h; high values mean tight binding. The settings on record: protein: recombinant; tags: N-terminal polyhistidine and DsRed monomer fusion (pET32a); label: CyDye5-dUTP incorporated in the synthesized complementary strand; 3' TTTTT single-stranded linker to array surface; dsDNA, one strand shown. A digest of the protocol:
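The binding signal for each feature is its fluorescence intensity in arbitrary units. An Axon 4000B scanner was used to read a custom Agilent array that had been made double-stranded with Cy5-dUTP primer extension, blocked with 2% BSA, incubated at 25 °C for 1 h with 200 nM protein in PBS, 2% BSA, salmon testes DNA and 50 µM zinc acetate, and washed. The protein was an N-terminal polyhistidine–DsRed transcription factor fusion from E. coli BL21-CodonPlus, purified on Ni–NTA.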
Take “GGTTGGTCGCGTCGCGCTGCACAGCACCCGGTCTTTGAAACGGAGTCACCTAGTGCAG”: the binding signal was 11400 fluorescence intensity (a.u.).
The figure for “GTCTTATTGCTCCGATTGCTTGGTCATGTTTATTTGATTACGGAGTCACCTAGTGCAG” is 10500 fluorescence intensity (a.u.); for “TCGTTGCCGTTTTCGAAGAGTGACATAGGCGGGGTGGGTGCGGAGTCACCTAGTGCAG” it is 10200 fluorescence intensity (a.u.); for “CTTGCCCCGCACCGCGCGCGCGCGCGCCTCTCTCGGCCACCGGAGTCACCTAGTGCAG” it is 8490 fluorescence intensity (a.u.).
The figure for “TTGGTCTGTTGGTGGCCGGGGCGCGGGCGCGCTTACCTGTCGGAGTCACCTAGTGCAG” is 9150 fluorescence intensity (a.u.).
With “ATCGAGGTTTTTTTTTTCAGCCTTTATCGTCTTCTTGCAACGGAGTCACCTAGTGCAG” the figure was 9370 fluorescence intensity (a.u.).
As for “TCTAATACTATGAATCTTGACAGTCTGTTGACTTTCTTTACGGAGTCACCTAGTGCAG”, the binding signal is 10600 fluorescence intensity (a.u.).
The figure for “AAAATTTTAGTTTGAACCATCCTTGCAACTTTTTTTTTTCCGGAGTCACCTAGTGCAG” is 9800 fluorescence intensity (a.u.); for “AGCAATTAAGCCTCGTGTTGTGATTGGTTGGCTGGTTGGTCGGAGTCACCTAGTGCAG” it is 9060 fluorescence intensity (a.u.); for “CACACACACCGATCTTTTCATTCATTCTTTTCTTTCTTTTCGGAGTCACCTAGTGCAG” it is 18700 fluorescence intensity (a.u.).
With “TTCCTCCGTTTTCTCCGTTCGTCTTCCTCCGCTTCCGAAGCGGAGTCACCTAGTGCAG” the figure was 18000 fluorescence intensity (a.u.).
With “ATATTACTCGATTTTTGTATTAGGTTGCCTTAGCAACTTTCGGAGTCACCTAGTGCAG” the figure was 8070 fluorescence intensity (a.u.); with “GGGCTTATCAGTTATCCCAGCGCTGCACCCACGCCACCACCGGAGTCACCTAGTGCAG”, 11000 fluorescence intensity (a.u.); with “CACACATCAAGTTCAATTGCAACTTCTACATCCTCGGCTGCGGAGTCACCTAGTGCAG”, 10100 fluorescence intensity (a.u.).
For the sequence “CTCGCTTTTCTCTTTTTTGATACTGTCTCGTGGTTTCTTGCGGAGTCACCTAGTGCAG”, the binding signal is 18400 fluorescence intensity (a.u.).
Consider “AATCTGATACTATGGTTGTGTTTAGTTCGTGTGCCAATTTCGGAGTCACCTAGTGCAG”, for which the binding signal was 13100 fluorescence intensity (a.u.).
With “TCGTCTTTACAGCCAAACCACCACGCATTTTTCGTTCTGTCGGAGTCACCTAGTGCAG”, the binding signal is 8470 fluorescence intensity (a.u.).
For “TGCTCTTCAAATCGATCCCTTTATCGAATCCGCCTCGATCCGGAGTCACCTAGTGCAG”, the binding signal was 9080 fluorescence intensity (a.u.).
The figure for “CCCCTTTCATACTCTACCTCAGCGCCTGATTTCAAAGTTTCGGAGTCACCTAGTGCAG” is 8500 fluorescence intensity (a.u.); for “TTTACCGATGTTACCGTTTTCAAAATTTTGTTTTTTTTATCGGAGTCACCTAGTGCAG” it is 9720 fluorescence intensity (a.u.).
With “AATTATTATTTATTTTGTTTGTGATTTACTTTATTATCAACGGAGTCACCTAGTGCAG” the figure was 8390 fluorescence intensity (a.u.).
The figure for “ATGCACTTGTTTTTTGTAACGCTGTAAGTTCATATCTGTCCGGAGTCACCTAGTGCAG” is 13100 fluorescence intensity (a.u.); for “ACTTTGTTTATAGGGGTGAGGGTACGTTCGTGTGAGTGTCCGGAGTCACCTAGTGCAG” it is 8630 fluorescence intensity (a.u.); for “CTCTCGAGCTCACCCCGTCATCCACCTCACCCGCGCCGTCCGGAGTCACCTAGTGCAG” it is 9420 fluorescence intensity (a.u.).
With “TCTCTTGTTGTGTTATGGAAATTTCACTCGAATCTTCTTTCGGAGTCACCTAGTGCAG”, the binding signal was 9280 fluorescence intensity (a.u.).
With “TCTCTCCTCTCTCTGCATCCTCTGCTCAGTGCTCATTCCACGGAGTCACCTAGTGCAG” the figure was 10600 fluorescence intensity (a.u.).
With “ACTCTTCTTCCTTTTATTCACCCTCATGTAACAAAATTTCCGGAGTCACCTAGTGCAG” the figure was 8280 fluorescence intensity (a.u.); with “CGTGTCCTCCGCTCATTGGTTGAGTTGCGCCGCCGCCTCTCGGAGTCACCTAGTGCAG”, 9550 fluorescence intensity (a.u.).
With “TCTTCTTCTTTTTTCGCCATTGCTGTTGTCTGCTTCGTTCCGGAGTCACCTAGTGCAG” the figure was 11600 fluorescence intensity (a.u.); with “GGGACCCGCTTGTCATACTCTCCCACCTCTCTCTTCTCCACGGAGTCACCTAGTGCAG”, 10400 fluorescence intensity (a.u.); with “CAATCATTTGCTTCTATGGCAGGCTATACACCACACTTTTCGGAGTCACCTAGTGCAG”, 10400 fluorescence intensity (a.u.).
Turning to “CACCCGCCCGCCACACGCCCAAAAAACGCCCCGAAATCCCCGGAGTCACCTAGTGCAG”, the binding signal was 8970 fluorescence intensity (a.u.).
With “GTATGCCATCTTCACACCATCACAGCCGTCCATACCAGCACGGAGTCACCTAGTGCAG” the figure was 15100 fluorescence intensity (a.u.).
With “CCTTGCTCTGCCACCGGTGGCCCTCCTGGCGCTTGCTCGTCGGAGTCACCTAGTGCAG” the figure was 8350 fluorescence intensity (a.u.); with “GGCCCATAATAATATGGTTTGGTCCTATCTCATACCCAACCGGAGTCACCTAGTGCAG”, 8200 fluorescence intensity (a.u.).
“TTTAAAACAACTTGTATATACTCCCTCTGTCCCATAACGTCGGAGTCACCTAGTGCAG”: the binding signal is 8480 fluorescence intensity (a.u.).
Consider “GTGCATACTAGTATATACACCGTACTCCTCCGTATGTACTCGGAGTCACCTAGTGCAG”, for which the binding signal was 8430 fluorescence intensity (a.u.).
The figure for “GGGCAAGGGGAGCGGATGGGCGGGGAGGAGGCAGGCTGCGCGGAGTCACCTAGTGCAG” is 11600 fluorescence intensity (a.u.); for “TGCCTAAATTTATACTGATGGGGTGTATATATGGTGAAAACGGAGTCACCTAGTGCAG” it is 8040 fluorescence intensity (a.u.); for “ACGCGCGCTACATTCTCCACCTCTCCACCATTCCAAACTGCGGAGTCACCTAGTGCAG” it is 9850 fluorescence intensity (a.u.).
With “AGGTAGTGGTGGATGGGGAGGAGGAGGAGCCTTAGGTAGTCGGAGTCACCTAGTGCAG”, the binding signal is 11300 fluorescence intensity (a.u.).
For “CGTGGTAATTTTTATTGGTAAGTGGTGGTGAAGTGGGTGACGGAGTCACCTAGTGCAG”, the binding signal is 8300 fluorescence intensity (a.u.).
